The values that follow come from the supplement of paper PMC10849652.

By UniProt entry, the sequences of proteins in these tests, tags left out. Where a name states a change or a piece, a line headed by the entry shows the natural chain unless it says otherwise.
UniProt Q9NX01: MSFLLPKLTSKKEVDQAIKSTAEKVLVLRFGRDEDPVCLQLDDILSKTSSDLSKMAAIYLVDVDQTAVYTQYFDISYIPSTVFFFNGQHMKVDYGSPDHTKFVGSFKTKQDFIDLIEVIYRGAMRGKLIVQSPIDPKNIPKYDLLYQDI
UniProt Q9NUQ3: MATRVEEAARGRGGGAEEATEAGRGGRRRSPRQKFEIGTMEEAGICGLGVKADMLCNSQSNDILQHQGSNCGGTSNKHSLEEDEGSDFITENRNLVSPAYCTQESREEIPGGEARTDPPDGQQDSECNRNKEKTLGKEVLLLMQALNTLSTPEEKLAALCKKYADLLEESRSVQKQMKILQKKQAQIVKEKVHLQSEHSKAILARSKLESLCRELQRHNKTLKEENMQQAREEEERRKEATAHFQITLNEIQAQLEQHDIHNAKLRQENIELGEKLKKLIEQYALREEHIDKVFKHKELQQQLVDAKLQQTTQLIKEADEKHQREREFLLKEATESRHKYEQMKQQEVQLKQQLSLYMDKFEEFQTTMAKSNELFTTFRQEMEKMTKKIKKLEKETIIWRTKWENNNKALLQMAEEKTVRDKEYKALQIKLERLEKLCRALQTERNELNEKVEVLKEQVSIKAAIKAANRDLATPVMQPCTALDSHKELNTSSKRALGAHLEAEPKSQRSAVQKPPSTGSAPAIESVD
UniProt P60604: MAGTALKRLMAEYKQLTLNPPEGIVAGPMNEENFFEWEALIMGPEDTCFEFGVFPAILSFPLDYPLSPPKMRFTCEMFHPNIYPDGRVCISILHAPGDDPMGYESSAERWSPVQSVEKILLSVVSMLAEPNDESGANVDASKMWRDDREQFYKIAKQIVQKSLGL
UniProt O95881: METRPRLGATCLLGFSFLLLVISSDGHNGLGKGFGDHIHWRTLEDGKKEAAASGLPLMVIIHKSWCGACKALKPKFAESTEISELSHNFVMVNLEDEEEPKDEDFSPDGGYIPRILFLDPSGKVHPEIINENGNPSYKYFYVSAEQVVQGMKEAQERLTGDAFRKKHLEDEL
UniProt Q04323: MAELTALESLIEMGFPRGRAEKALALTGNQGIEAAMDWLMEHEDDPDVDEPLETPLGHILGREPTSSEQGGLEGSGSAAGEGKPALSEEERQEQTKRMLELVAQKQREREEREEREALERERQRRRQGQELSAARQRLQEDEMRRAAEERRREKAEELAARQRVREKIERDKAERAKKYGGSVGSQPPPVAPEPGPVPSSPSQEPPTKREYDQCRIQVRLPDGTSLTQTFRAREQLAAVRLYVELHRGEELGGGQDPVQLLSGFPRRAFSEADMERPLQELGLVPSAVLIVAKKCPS
UniProt Q96B02: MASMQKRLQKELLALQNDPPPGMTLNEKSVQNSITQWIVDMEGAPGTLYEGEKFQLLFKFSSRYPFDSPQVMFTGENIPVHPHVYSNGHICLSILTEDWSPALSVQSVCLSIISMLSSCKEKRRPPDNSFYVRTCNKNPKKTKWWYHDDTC
UniProt Q9C0C9: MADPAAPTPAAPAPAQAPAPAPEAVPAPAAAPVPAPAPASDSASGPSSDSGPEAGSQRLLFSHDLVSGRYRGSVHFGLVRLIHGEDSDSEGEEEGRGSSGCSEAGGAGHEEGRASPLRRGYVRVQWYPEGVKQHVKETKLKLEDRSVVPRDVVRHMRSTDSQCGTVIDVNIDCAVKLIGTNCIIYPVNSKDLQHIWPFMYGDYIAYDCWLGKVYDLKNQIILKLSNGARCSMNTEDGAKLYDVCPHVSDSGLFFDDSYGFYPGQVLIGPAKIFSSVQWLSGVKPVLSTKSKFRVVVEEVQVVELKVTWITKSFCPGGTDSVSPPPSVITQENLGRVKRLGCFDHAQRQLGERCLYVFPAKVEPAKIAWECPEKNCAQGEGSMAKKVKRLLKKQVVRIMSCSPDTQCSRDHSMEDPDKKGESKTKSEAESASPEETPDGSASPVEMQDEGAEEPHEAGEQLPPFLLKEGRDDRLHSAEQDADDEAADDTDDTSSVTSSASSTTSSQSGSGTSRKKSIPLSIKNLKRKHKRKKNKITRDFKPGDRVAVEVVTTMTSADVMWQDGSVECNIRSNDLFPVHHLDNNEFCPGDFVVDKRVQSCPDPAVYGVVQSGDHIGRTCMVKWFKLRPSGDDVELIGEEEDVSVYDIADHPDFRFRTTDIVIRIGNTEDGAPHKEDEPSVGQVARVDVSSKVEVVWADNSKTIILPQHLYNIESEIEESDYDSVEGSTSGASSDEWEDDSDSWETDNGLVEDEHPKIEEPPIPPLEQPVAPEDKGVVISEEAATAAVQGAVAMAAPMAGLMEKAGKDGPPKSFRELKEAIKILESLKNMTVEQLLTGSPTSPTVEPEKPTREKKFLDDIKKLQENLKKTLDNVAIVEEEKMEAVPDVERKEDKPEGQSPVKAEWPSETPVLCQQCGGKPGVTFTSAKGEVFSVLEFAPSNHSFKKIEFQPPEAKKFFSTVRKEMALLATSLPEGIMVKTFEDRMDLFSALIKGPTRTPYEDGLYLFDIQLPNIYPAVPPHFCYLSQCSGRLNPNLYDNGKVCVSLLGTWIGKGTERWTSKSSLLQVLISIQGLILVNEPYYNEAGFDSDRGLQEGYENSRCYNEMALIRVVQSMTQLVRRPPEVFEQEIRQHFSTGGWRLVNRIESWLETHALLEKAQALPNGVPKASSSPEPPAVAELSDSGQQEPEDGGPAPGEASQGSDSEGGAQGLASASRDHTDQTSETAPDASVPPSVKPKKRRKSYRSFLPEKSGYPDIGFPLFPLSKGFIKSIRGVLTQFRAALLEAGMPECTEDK
UniProt O14562: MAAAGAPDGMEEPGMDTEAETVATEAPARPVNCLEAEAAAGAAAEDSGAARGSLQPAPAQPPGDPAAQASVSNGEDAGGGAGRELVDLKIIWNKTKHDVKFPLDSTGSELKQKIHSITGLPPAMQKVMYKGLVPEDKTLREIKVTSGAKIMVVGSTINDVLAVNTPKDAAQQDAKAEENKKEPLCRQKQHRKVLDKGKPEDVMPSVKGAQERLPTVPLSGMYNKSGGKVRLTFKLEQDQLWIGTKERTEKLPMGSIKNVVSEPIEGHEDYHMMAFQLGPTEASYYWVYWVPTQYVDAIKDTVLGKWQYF
UniProt O14530: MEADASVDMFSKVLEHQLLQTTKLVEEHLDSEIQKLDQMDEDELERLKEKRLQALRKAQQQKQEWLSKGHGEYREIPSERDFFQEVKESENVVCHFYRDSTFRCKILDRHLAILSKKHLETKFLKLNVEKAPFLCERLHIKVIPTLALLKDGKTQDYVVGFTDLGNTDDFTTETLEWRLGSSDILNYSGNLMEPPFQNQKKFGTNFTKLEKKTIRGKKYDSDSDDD
UniProt Q8IWV7: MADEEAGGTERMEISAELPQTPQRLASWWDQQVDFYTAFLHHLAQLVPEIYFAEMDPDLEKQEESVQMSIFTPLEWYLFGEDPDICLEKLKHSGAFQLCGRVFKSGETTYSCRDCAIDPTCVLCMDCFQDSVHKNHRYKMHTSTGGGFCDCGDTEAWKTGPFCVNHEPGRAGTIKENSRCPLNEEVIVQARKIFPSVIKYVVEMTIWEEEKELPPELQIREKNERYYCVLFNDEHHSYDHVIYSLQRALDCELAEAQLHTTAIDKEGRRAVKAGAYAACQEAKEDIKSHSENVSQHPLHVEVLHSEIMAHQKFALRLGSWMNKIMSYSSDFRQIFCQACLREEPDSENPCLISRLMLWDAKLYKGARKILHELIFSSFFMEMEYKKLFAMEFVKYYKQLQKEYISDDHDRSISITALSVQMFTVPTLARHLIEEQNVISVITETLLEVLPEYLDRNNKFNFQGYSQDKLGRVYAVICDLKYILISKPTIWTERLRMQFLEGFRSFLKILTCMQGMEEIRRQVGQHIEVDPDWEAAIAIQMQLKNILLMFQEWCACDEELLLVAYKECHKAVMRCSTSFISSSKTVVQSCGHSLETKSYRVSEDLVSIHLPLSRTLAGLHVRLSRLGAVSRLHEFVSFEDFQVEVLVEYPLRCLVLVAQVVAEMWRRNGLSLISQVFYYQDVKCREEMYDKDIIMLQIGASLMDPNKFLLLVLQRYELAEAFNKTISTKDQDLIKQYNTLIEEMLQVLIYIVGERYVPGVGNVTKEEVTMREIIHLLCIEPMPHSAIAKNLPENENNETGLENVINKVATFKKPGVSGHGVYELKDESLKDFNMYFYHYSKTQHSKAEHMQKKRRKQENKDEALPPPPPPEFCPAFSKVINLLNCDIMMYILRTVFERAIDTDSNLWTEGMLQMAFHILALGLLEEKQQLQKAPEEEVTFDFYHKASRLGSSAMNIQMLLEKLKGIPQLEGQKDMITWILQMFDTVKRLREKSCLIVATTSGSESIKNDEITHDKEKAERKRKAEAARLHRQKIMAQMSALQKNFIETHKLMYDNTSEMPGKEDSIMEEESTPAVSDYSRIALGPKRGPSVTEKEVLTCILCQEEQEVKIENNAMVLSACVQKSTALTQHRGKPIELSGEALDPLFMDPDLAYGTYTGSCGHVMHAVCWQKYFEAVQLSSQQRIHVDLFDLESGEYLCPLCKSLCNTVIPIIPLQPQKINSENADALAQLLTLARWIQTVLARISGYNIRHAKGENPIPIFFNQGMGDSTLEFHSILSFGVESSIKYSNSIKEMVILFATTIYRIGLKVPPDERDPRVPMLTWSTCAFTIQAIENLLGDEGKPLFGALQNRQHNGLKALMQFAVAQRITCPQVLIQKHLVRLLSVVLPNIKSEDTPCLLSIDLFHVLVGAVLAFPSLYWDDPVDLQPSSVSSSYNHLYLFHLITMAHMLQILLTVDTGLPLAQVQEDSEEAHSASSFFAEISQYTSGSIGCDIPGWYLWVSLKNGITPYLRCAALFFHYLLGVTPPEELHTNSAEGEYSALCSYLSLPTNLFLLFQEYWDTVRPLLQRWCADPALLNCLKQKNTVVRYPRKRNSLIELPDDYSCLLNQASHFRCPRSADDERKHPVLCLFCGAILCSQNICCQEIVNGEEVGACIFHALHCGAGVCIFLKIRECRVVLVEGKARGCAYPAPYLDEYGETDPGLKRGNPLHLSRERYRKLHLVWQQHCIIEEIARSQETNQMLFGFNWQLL
UniProt Q9BZL1: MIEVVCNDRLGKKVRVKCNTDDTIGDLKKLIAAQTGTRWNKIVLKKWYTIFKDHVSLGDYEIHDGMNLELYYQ
UniProt O75386: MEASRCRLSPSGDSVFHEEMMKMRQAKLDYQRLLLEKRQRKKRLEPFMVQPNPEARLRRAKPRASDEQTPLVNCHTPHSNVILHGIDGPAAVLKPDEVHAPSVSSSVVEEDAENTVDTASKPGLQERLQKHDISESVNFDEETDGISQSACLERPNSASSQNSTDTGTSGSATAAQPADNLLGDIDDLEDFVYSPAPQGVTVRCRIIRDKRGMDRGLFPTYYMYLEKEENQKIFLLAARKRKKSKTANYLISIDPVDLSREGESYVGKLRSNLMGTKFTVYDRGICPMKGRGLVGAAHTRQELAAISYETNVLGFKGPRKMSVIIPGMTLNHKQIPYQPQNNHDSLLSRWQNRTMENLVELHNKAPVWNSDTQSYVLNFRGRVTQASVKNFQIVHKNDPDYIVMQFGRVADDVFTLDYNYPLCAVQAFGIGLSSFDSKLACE
UniProt Q9Y5K5, whole entry, looked up: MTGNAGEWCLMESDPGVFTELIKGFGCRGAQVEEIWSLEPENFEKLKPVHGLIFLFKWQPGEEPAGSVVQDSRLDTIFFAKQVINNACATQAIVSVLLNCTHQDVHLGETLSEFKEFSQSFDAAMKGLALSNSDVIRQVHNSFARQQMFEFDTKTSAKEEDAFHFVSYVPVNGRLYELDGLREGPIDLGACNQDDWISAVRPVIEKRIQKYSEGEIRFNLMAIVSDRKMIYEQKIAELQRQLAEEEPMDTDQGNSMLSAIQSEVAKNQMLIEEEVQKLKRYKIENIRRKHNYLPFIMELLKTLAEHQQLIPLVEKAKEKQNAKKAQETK
UniProt P68543: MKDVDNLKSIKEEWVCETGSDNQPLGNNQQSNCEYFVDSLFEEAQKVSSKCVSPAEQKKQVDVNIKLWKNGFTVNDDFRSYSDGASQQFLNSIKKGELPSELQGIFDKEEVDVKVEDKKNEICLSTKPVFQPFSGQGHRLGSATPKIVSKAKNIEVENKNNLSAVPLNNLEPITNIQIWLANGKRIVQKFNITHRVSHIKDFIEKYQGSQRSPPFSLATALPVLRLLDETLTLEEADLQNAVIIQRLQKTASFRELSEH
UniProt Q8NBS9: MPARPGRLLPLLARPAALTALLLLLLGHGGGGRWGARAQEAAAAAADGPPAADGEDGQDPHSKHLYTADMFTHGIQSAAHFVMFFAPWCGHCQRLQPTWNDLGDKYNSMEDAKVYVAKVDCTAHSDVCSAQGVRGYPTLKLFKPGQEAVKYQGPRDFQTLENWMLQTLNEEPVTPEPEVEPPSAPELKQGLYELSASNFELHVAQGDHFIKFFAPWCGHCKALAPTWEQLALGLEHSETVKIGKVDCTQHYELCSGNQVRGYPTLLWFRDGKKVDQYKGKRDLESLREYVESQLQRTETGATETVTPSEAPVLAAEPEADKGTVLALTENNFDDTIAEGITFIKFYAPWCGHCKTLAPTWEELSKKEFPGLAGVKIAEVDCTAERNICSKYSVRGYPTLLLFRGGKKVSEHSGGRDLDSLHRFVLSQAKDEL

This is one part of the list.

Compound in the first assay: NCC(=O)Nc1ccc(-n2nc(C(F)(F)F)cc2-c2ccc3c(ccc4ccccc43)c2)cc1
The experiment in a line: log2 fold change, soluble protein after heating vs DMSO (PISA); higher = thermal stabilisation; K562 lysate, 10 uM; active = over 0.2 and 3.5 SD of the protein, either way, in both replicates (recomputed). A digest of the protocol: (§1)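 Thermal stability, expressed as log-two fold change relative to solvent controls, is given from duplicates. Crude K562 extract in PBS pH 7.4 with 1 mM MgCl2, at 1 mg/mL protein, was treated with 10 μM compound for 30 min and heated in aliquots for 3 min across 48°C-58°C. After pooling, adjustment to 0.5% NP-40 at 4°C and centrifugation at 21,000xg for 90 min, supernatant protein was measured by TMTpro 16plex LC-MS/MS with channel sums equalised.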
As for UBE2D3 isoform 3 (UniProt P61077), the log2 fold change was inactive: -0.006.
As for TXNL4B (UniProt Q9NX01), the log2 fold change is inactive: -0.055.
Turning to TXLNG (UniProt Q9NUQ3), the log2 fold change is inactive: 0.014.
On to UBE2E1 (UniProt P51965), for which the log2 fold change was inactive: -0.089.
The same measure, in the same setting: the figure for UBE2G2 (UniProt P60604) is inactive: 0.091.
Consider TXNDC12 (UniProt O95881), for which the log2 fold change is inactive: -0.02.
As to U2SURP (UniProt O15042), the log2 fold change is inactive: 0.01.
Turning to UBR5 (UniProt O95071), the log2 fold change is inactive: 0.009.
Turning to UBXN1 (UniProt Q04323), the log2 fold change was inactive: -0.006.
For the target TUBGCP4 (UniProt Q9UGJ1), the log2 fold change was inactive: -0.11.
The same measure, in the same setting: the figure for TXNDC16 (UniProt Q9P2K2) is inactive: 0.046; for UBE2W isoform 3 (UniProt Q96B02) it is inactive: 0.092.
Turning to UBE2O (UniProt Q9C0C9), the log2 fold change was inactive: 0.086.
For TXNIP (UniProt Q9H3M7), the log2 fold change was inactive: -0.076.
The same measure, in the same setting: the figure for UBFD1 (UniProt O14562) is inactive: 0.021; for TXNDC9 (UniProt O14530) it is inactive: -0.009.
With UBR1 (UniProt Q8IWV7), the log2 fold change was inactive: -0.04.
Turning to UBL5 (UniProt Q9BZL1), the log2 fold change was inactive: -0.027.
For TUBB4A (UniProt M0QYM7), the log2 fold change is inactive: 0.128.
UBP1 (UniProt Q9NZI7): the log2 fold change is inactive: -0.002.
For the target UBAP2L isoform 5 (UniProt Q14157), the log2 fold change is inactive: 0.013.
As to UBQLN4 (UniProt Q9NRR5), the log2 fold change was inactive: -0.069.
The same measure, in the same setting: the figure for TULP3 isoform 2 (UniProt O75386) is inactive: -0.015; for TUT4 (UniProt Q5TAX3) it is inactive: 0.072.
On the same count and under the same terms, the figure for UBQLN1 (UniProt Q9UMX0) is inactive: -0.041; for UBE2J2 (UniProt Q8N2K1) it is inactive: 0.141.
For the target UBAC2 (UniProt Q8NBM4), the log2 fold change was inactive: -0.04.
With UBE2D1 (UniProt P51668), the log2 fold change is inactive: -0.01.
Same read-out and setting: the figure for TXN2 (UniProt Q99757) is inactive: -0.014.
Turning to UCHL5 isoform 3 (UniProt Q9Y5K5), the log2 fold change is inactive: 0.004.
Turning to UBXN2A (UniProt P68543), the log2 fold change is inactive: -0.011.
For the target TYW3 (UniProt Q6IPR3), the log2 fold change was inactive: 0.036.
The same measure, in the same setting: the figure for TXNDC5 (UniProt Q8NBS9) is inactive: 0.02.

Compound in a further assay: O=C(CCCCCCC(=O)Nc1ccccc1)NO [vorinostat]
The description is as above. A digest of the protocol:
as §1
For UBE2D3 isoform 3 (UniProt P61077), the log2 fold change was inactive: -0.074.
As to TXNL4B (UniProt Q9NX01), the log2 fold change is inactive: 0.099.
On to TXLNG (UniProt Q9NUQ3), for which the log2 fold change was inactive: -0.037.
On to UBE2E1 (UniProt P51965), for which the log2 fold change was inactive: 0.064.
For UBE2G2 (UniProt P60604), the log2 fold change was inactive: -0.182.
TXNDC12 (UniProt O95881): the log2 fold change is inactive: 0.088.
Regarding U2SURP (UniProt O15042), the log2 fold change was inactive: -0.208.
The same measure, in the same setting: the figure for UBR5 (UniProt O95071) is active: -0.234; for UBXN1 (UniProt Q04323) it is inactive: 0.051.
For TUBGCP4 (UniProt Q9UGJ1), the log2 fold change was active: -0.219.
The same measure, in the same setting: the figure for TXNDC16 (UniProt Q9P2K2) is inactive: 0.08; for UBE2W isoform 3 (UniProt Q96B02) it is inactive: -0.012; for UBE2O (UniProt Q9C0C9) it is inactive: 0.003.
Consider TXNIP (UniProt Q9H3M7), for which the log2 fold change is active: -0.399.
Consider UBFD1 (UniProt O14562), for which the log2 fold change is inactive: 0.131.
For TXNDC9 (UniProt O14530), the log2 fold change is inactive: 0.011.
For UBR1 (UniProt Q8IWV7), the log2 fold change was active: -0.239.
Same read-out and setting: the figure for UBL5 (UniProt Q9BZL1) is inactive: -0.078; for TUBB4A (UniProt M0QYM7) it is inactive: -0.431; for UBP1 (UniProt Q9NZI7) it is inactive: -0.182.
For UBAP2L isoform 5 (UniProt Q14157), the log2 fold change is inactive: 0.126.
Turning to UBQLN4 (UniProt Q9NRR5), the log2 fold change was inactive: 0.02.
Turning to TULP3 isoform 2 (UniProt O75386), the log2 fold change was inactive: -0.355.
Take TUT4 (UniProt Q5TAX3): the log2 fold change is active: -0.398.
In the case of UBQLN1 (UniProt Q9UMX0), the log2 fold change was inactive: 0.133.
For the target UBE2J2 (UniProt Q8N2K1), the log2 fold change is inactive: -0.301.
Turning to UBAC2 (UniProt Q8NBM4), the log2 fold change is inactive: 0.067.
On to UBE2D1 (UniProt P51668), for which the log2 fold change is inactive: 0.088.
TXN2 (UniProt Q99757): the log2 fold change was inactive: 0.099.
Same read-out and setting: the figure for UCHL5 isoform 3 (UniProt Q9Y5K5) is inactive: -0.081; for UBXN2A (UniProt P68543) it is inactive: -0.021; for TYW3 (UniProt Q6IPR3) it is active: -0.694.
As for TXNDC5 (UniProt Q8NBS9), the log2 fold change was inactive: 0.1.

Compound in another assay: O=C(O)c1ccc2c(c1)nc(Nc1cccc(Cl)c1)c1ccncc12 [silmitasertib]
Described as above. The method, boiled down:
as §1
In the case of UBE2D3 isoform 3 (UniProt P61077), the log2 fold change is inactive: -0.024.
Take TXNL4B (UniProt Q9NX01): the log2 fold change is inactive: 0.007.
Consider TXLNG (UniProt Q9NUQ3), for which the log2 fold change is inactive: 0.009.
Regarding UBE2E1 (UniProt P51965), the log2 fold change is inactive: 0.035.
Turning to UBE2G2 (UniProt P60604), the log2 fold change is inactive: -0.023.
Take TXNDC12 (UniProt O95881): the log2 fold change is inactive: 0.012.
Regarding U2SURP (UniProt O15042), the log2 fold change is inactive: 0.007.
Still for that read-out and setting: the figure for UBR5 (UniProt O95071) is inactive: 0.011; for UBXN1 (UniProt Q04323) it is inactive: 0.008; for TUBGCP4 (UniProt Q9UGJ1) it is inactive: 0.003.
TXNDC16 (UniProt Q9P2K2): the log2 fold change is inactive: -0.039.
Same read-out and setting: the figure for UBE2W isoform 3 (UniProt Q96B02) is inactive: 0.144.
For the target UBE2O (UniProt Q9C0C9), the log2 fold change is inactive: -0.025.
In the case of TXNIP (UniProt Q9H3M7), the log2 fold change was inactive: 0.04.
On to UBFD1 (UniProt O14562), for which the log2 fold change is inactive: -0.026.
With TXNDC9 (UniProt O14530), the log2 fold change is inactive: 0.014.
Take UBR1 (UniProt Q8IWV7): the log2 fold change was inactive: 0.025.
For UBL5 (UniProt Q9BZL1), the log2 fold change is inactive: 0.065.
Regarding TUBB4A (UniProt M0QYM7), the log2 fold change was inactive: 0.01.
As to UBP1 (UniProt Q9NZI7), the log2 fold change was inactive: 0.008.
For UBAP2L isoform 5 (UniProt Q14157), the log2 fold change was inactive: -0.037.
In the case of UBQLN4 (UniProt Q9NRR5), the log2 fold change was inactive: 0.002.
Same read-out and setting: the figure for TULP3 isoform 2 (UniProt O75386) is inactive: 0.065; for TUT4 (UniProt Q5TAX3) it is inactive: 0.018; for UBQLN1 (UniProt Q9UMX0) it is inactive: -0.045.
Regarding UBE2J2 (UniProt Q8N2K1), the log2 fold change is inactive: 0.03.
UBAC2 (UniProt Q8NBM4): the log2 fold change is inactive: -0.04.
As for UBE2D1 (UniProt P51668), the log2 fold change is inactive: -0.101.
For TXN2 (UniProt Q99757), the log2 fold change was inactive: -0.027.
Take UCHL5 isoform 3 (UniProt Q9Y5K5): the log2 fold change is inactive: 0.
With UBXN2A (UniProt P68543), the log2 fold change is inactive: 0.015.
The same measure, in the same setting: the figure for TYW3 (UniProt Q6IPR3) is inactive: 0.
As for TXNDC5 (UniProt Q8NBS9), the log2 fold change was inactive: -0.032.
